Four sequences from PMC12529230, “The Lrs14‐Like AbfR1 Homolog From Metallosphaera sedula Is a Nucleoid‐Organizing Protein” (MicrobiologyOpen, 2025) can be followed below.

Changes are numbered by the printed parent chain. For at least one entry, the source does not settle the construct or the ends of the probe. For some assays here: Weaker means in comparison with the reference protein, sequence or condition of that experiment. Where a protein sequence is shown, tags need not be part of it. For some assays here: At least one verdict rests on a figure or table, not on a statement of the authors.

What all share (assay): EMSA
Data set [1] addresses T1, AbfR1Sa K61A (Sulfolobus acidocaldarius) (UniProt Q4JBH1).
T1 sequence (looked up, limits assumed): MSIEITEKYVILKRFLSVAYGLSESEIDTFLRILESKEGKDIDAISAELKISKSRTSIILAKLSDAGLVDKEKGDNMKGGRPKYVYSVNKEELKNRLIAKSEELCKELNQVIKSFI
The conditions noted are these: apparent decrease in affinity vs wild type; EMSA: 20 mM Tris-HCl pH 8.0, 50 mM NaCl, 0.4 mM EDTA, 0.1 mM DTT, 1 mM MgCl2, 12.5% glycerol, 25 ug/mL sonicated salmon sperm DNA, 25 min at 37 C; recombinant protein; label: 5'-32P on one strand; probe letters rebuilt from the primers and the genome. (A gel shift assay detects complexes by their altered migration in electrophoresis.)

The target in data set [2] is T2, AbfR1Sa R55A (Sulfolobus acidocaldarius) (UniProt Q4JBH1).
T2 sequence (looked up, limits assumed): T1 sequence (looked up, limits assumed) with R55A, A61K
The conditions noted are these: larger apparent decrease than K61A; EMSA: 20 mM Tris-HCl pH 8.0, 50 mM NaCl, 0.4 mM EDTA, 0.1 mM DTT, 1 mM MgCl2, 12.5% glycerol, 25 ug/mL sonicated salmon sperm DNA, 25 min at 37 C; recombinant protein; label: 5'-32P on one strand; probe letters rebuilt from the primers and the genome.

The target in data set [3] is T3, AbfR1Ms (Metallosphaera sedula DSM5348) (UniProt A4YIR2).
T3 sequence (looked up): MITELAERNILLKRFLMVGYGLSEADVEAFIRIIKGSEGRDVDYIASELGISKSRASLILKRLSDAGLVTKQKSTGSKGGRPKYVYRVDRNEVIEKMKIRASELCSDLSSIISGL
The following applies: apparent, range over p/o probes, individual value only in Figure A6, salmon sperm competitor DNA; EMSA: 20 mM Tris-HCl pH 8.0, 50 mM NaCl, 0.4 mM EDTA, 0.1 mM DTT, 1 mM MgCl2, 12.5% glycerol, 25 ug/mL sonicated salmon sperm DNA, 25 min at 37 C; recombinant protein; residues 1-115; protein details: C-terminal His; label: 5'-32P on one strand.

With “CCCTTAATCTCCTTATTGCTTCGTCTAATCTATCCTGCTGCTCTTTTAATTTTAAAGATATTTCAGTTATCGCTTTGGACAAATGCACCTTTCTCTTTCTATCACTATTAAAAATTATCGATAACTTATCAAACATCCTATGTCACTAATTCTTCATAAAGTATTTATTACCCTTACTGGTATTGGAACAGACACTTCAGACTTATTACCCTCGTTCTTATTTGACTGTTCTGTTGACGTGTTTAATGAGGCAGAAGGCTTAAGTTCTATTACCTCCTTATCCAATCCGTCAAGTTTATCTAGAGTTTTCTTTATATCGTCTCTTTCCAATGCATAA (double strand) [p/o cdvA]”, the binding result in data set [1] and in data set [2] was “binds more weakly” each time. Turning to “TACTCATGCACCGCCTTAGTGGGAAATATTAAATAAAAAACATTATATCTTAAATATCTTCTCATTTTAAACCATTTATCCTATAACTGTCACTTTTCCA (double strand) [p/o arlXSa]”, the binding result in data set [3] is given as “binds”.

As to “AGTATAATATAAAACTTCATAAGAAAAACTGATAGATAAAAACTTTTTAAACTATTCGAGTTATATTTATGTGATTCTTATGCCACCCTTTAGTAGAGTT (double strand) [p/o accABMs]”, the binding result in data set [3] was “binds”. On the same count and under the same terms, with “CCTACAAAGGTTGCCTAATCACAATAAAACTTTAAAAACAATAAAAACTAAATGTTAAACGGTGCAATTTAATTGATAACTGAGCTCGCAGAAAGAAATA (double strand) [p/o abfR1Ms]” the entry was “binds”.
